Measured values reported in patent US7951577B2, “Liquid crystals with reduced toxicity and applications thereof” (Wisconsin Alumni Research Foundation, priority 2003, dated 2011).
Some of these results come from one statement about several compounds together.

Tested on: SV-40 transformed human corneal epithelial cells (HCEC)
Assay type: cell-based
Details: SV-40 HCEC, 4 hours, 10,000 cells/well, liquid crystal 25 μL/well

CCCCCc1ccc(-c2ccc(C#N)cc2)cc1 [5CB, 4-cyano-4′-pentylbiphenyl]
CAL fluorescence relative to cells not treated with liquid crystal: less than 50%
